Screen size: about 400,000 compounds; about 13,000 (3.2%) were called active. The shares of active, inactive and inconclusive entries below differ from those in the screen. The call rests on the fitted dose curve; in most records, active means well fitted cell-killing curve with a large enough effect; inconclusive means small, poorly fitted or top-dose-only effect, or effect the other way; inactive means flat fitted curve, though single readings scatter. Where the call is inconclusive, the potency comes from a doubtful curve fit.
Assay: qHTS assay for MDR1-selective chemotherapeutics: Primary screen using the drug-selected MDR subline cells KB-V1; further: nearly all actives have a fitted effect of over 60% in size
Details: KB-V1 MDR cells viability, CellTiter-Glo, 72 h; activity change, negative = cytotoxicity: at 46.1 µM (top of the series)
Procedure, shortened: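 Cytotoxicity toward P-gp-expressing KB-V1 cells was determined as loss of CellTiter-Glo luminescence after 72 h at 37 degrees C. Compounds were tested in quantitative HTS format across a concentration range, with curves fitted to normalized data.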
On the % scale 0 is the no-effect control and ±100 the full control effect; potency means the concentration at half of the fitted maximal effect.

SMILES	Potency	activity change, negative = cytotoxicity
CCCn1c(SCC(=O)Nc2ccc3c(c2)OCO3)nc2c1c(=O)n(C)c(=O)n2C	inconclusive: 8.2 µM [cytotoxic, partial curve]	–
Cc1ccc(S(=O)(=O)N2CCOCC2)cc1C(=O)NCCCn1ccnc1	inconclusive: 29.1 µM [rising, single point]	–
CCOc1ccccc1/C=N/OCC(=O)NCc1ccc(F)cc1	inconclusive: 16.4 µM [cytotoxic, single point]	–
CCc1ccccc1NC(=O)CN(C)C(=O)COc1ccc(C)nc1[N+](=O)[O-]	inconclusive: 9.2 µM [cytotoxic, partial curve]	–
CN(C)S(=O)(=O)c1ccc(C(=O)Nc2ccnn2C2CCCCC2)cc1	inactive	–
CCOc1ccc(/C=N/NC(=O)c2[nH]c3ccc(C)cc3c2C)cc1	inactive	–
C#CCOCCOCCOCCNc1nc(N2CCN(C(=O)[C@H](Cc3cc4ccccc4[nH]3)n3cc([C@@H](N)CC(C)C)nn3)CC2)nc(N2CCN(C(=O)[C@H](Cc3cc4ccccc4[nH]3)n3cc([C@@H](N)CC(C)C)nn3)CC2)n1	inconclusive: 1.84 µM [rising, full curve, poor fit]	–
COc1ccccc1CNC(=O)c1ccc2nc(-c3ccccc3)c(-c3ccccc3)nc2c1	inactive	–
Cc1cc(C)n(Cc2ccccc2F)c(=O)c1C#N	inconclusive: 14.6 µM [rising, partial curve, poor fit]	–
Cc1cccc(N2CCN(C(=O)c3cccc(S(=O)(=O)N4CCCCC4)c3)CC2)c1C	inconclusive: 20.6 µM [cytotoxic, single point]	–
CS(=O)(=O)C1=NN2C(=N)/C(=C\c3ccc(OCCOc4ccccc4)cc3)C(=O)N=C2S1	inconclusive: 29.1 µM [rising, single point]	–
CCC(=O)NNc1ncnc2ccccc12	inconclusive: 0.651 µM [rising, full curve, poor fit]	–
Cc1ccc(S(=O)(=O)N(C(=O)c2ccncc2)c2ccc(OC(=O)c3ccncc3)c3ccccc23)c(C)c1	inactive	–
COCCN(CC1CCCN(C2Cc3ccccc3C2)C1)C(=O)CCC(N)=O (stereo not given)	inactive	–
Cc1nn(C)c2c1c(C(F)(F)F)cc(=O)n2Cc1cccc(Br)c1	inactive	–
CN(C)CC/C=C1\c2ccccc2CSc2ccccc21	inconclusive: 23.1 µM [cytotoxic, single point]	–
CCOC(=O)c1cc(-c2ccccc2)n(CCC(=O)Nc2ccc(Cl)c(C(F)(F)F)c2)c1C	inconclusive: 20.6 µM [cytotoxic, single point]	–
CC(C)(C)OC(=O)NCCc1onc(-c2cccc([N+](=O)[O-])c2)c1C(=O)O	inconclusive: 6.51 µM [rising, full curve, poor fit]	–
COc1ccc(CNC(=O)c2[nH]c(C)c(C(C)=O)c2C)cc1	inconclusive: 11.6 µM [cytotoxic, single point]	–
Cc1cc(C)c2c(c1)/C(=c1/sc3n(c1=O)CN(c1ccccc1)CN=3)C(=O)N2	active: 16.4 µM	–
Cc1c(/C=N/NC(=O)COc2ccccc2[N+](=O)[O-])c2ccccc2n1C	inconclusive: 18.4 µM [cytotoxic, single point]	–
CCN1CCN(CCCNC(=O)c2ccc(NC(=O)C3=C(C)OCCS3)cc2)CC1	–	inconclusive: -1.86%
CCOC(=O)N1CCN(C(=O)/C(=C/c2ccc(OC)c(OC)c2)NC(=O)c2ccccc2)CC1	inactive	–
CN(C)c1ccnc2sc3c(=O)n(Cc4ccccc4)cnc3c12	active: 8.2 µM	–

SMILES	Potency	activity change, negative = cytotoxicity
Cc1cc(-c2nnc3n2CCCCC3)c(C)n1-c1ccccc1	active: 20.6 µM	–
Cc1c(OC(C)C(=O)NCc2cccnc2)ccc2c3c(c(=O)oc12)CCCC3 (stereo not given)	inconclusive: 20.6 µM [cytotoxic, partial curve]	–
COC(=O)c1sccc1NC(=S)N1CCN(c2ccc(F)cc2)CC1	–	inconclusive: -74.8%
O=C1c2c(O)cc(O)cc2O[C@H](c2ccc(O)cc2)[C@H]1O	inconclusive: 32.6 µM [rising, partial curve, poor fit]	–
COc1ccc(CC(=O)N/N=C(\C)c2cccc(NC(=O)C3CC3)c2)cc1	–	inconclusive: -28.6%
O=C(N/N=C/c1cccc(O)c1)c1cc(-c2ccc3c(c2)OCO3)n[nH]1	inconclusive: 20.6 µM [rising, single point]	–
COc1ccc(NC(=O)CSc2nnc(-c3ccccn3)n2-c2ccccc2)cc1OC	active: 14.6 µM	–
O=C(CCc1nnc(C2(c3ccc(Cl)cc3)CCC2)o1)N1CCCC1	inactive	–
O=C(Nc1ccc(Br)cc1Cl)c1cnccn1	inconclusive: 23.1 µM [cytotoxic, single point]	–
COc1ccc(CCNC(=O)c2c(C)nn(-c3ccc(F)cc3)c2-n2cccc2)cc1OC	active: 5.17 µM	–
COc1ccc(OCCSc2nnc(CCNC(=O)c3ccc(OC)cc3)n2C)cc1	active: 18.4 µM	–
COc1cc(OC)c(N(C)S(=O)(=O)c2cccc(C(=O)Nc3nccs3)c2)cc1Cl	inconclusive: 18.4 µM [cytotoxic, single point]	–
Cc1ccc(S(=O)(=O)N2CCOCC2)cc1C(=O)Nc1ccccc1C(=O)O	inactive	–
Cc1ccc(C)c(CSC2=NN3CCCC(=O)N=C3S2)c1	inactive	–
O=c1cc(-c2cccnc2)oc2c1ccc1ccccc12	inconclusive: 29.1 µM [cytotoxic, single point]	–
O=C(NN=Cc1c(O)ccc2ccccc12)C1CC1	inconclusive: 2.91 µM [cytotoxic, full curve]	–
C=CC[C@]12CC=CC(=O)[C@@]1(O)O[C@H](c1ccc(OC)c(OC)c1)[C@H]2C	inconclusive: 5.8 µM [cytotoxic, partial curve, poor fit]	–
CCC(=O)OCC(=O)Nc1ccc(OC)cc1[N+](=O)[O-]	inconclusive: 0.206 µM [cytotoxic, full curve]	–
CCc1nnc(NC(=O)C2CCCN2C(=O)Nc2ccccc2)s1 (stereo not given)	inactive	–
CC1CN(c2oc(Cc3cccc4ccccc34)nc2C#N)CC(C)O1 (stereo not given)	inconclusive: 29.1 µM [cytotoxic, single point]	–
CC(C)Cn1c(N)c(C(=O)COC(=O)c2ccc(O)cc2)c(=O)n(C)c1=O	inconclusive: 29.1 µM [rising, single point]	–
COc1ccc(S(=O)(=O)NCCCCC(=O)O)cc1C(=O)O	inactive	–
Cc1cnc(C(=O)Nc2ccc(-n3cnnn3)cc2)cn1	inactive	–
O=S(=O)(Nc1nccs1)c1ccc(Cl)cc1	inactive	–

In a second layout: results already given.
SMILES,Potency,"activity change, negative = cytotoxicity"
Cc1cc(C)c2c(c1)/C(=c1/sc3n(c1=O)CN(c1ccccc1)CN=3)C(=O)N2,active: 16.4 µM,–
Cc1c(/C=N/NC(=O)COc2ccccc2[N+](=O)[O-])c2ccccc2n1C,"inconclusive: 18.4 µM [cytotoxic, single point]",–
CCN1CCN(CCCNC(=O)c2ccc(NC(=O)C3=C(C)OCCS3)cc2)CC1,–,inconclusive: -1.86%
CCOC(=O)N1CCN(C(=O)/C(=C/c2ccc(OC)c(OC)c2)NC(=O)c2ccccc2)CC1,inactive,–

(continued)

SMILES	Potency	activity change, negative = cytotoxicity
c1ccc(COc2ccc(-c3cc4nc(NCCCn5ccnc5)ccn4n3)cc2)cc1	inactive	–
O=C(c1ncc[nH]1)c1ccccc1C(=O)N1CCOCC1	inconclusive: 23.1 µM [cytotoxic, single point]	–
Nc1ccn([C@@H]2O[C@H](CN=C3NS(=O)(=O)c4ccccc43)[C@@H](O)[C@H]2O)c(=O)n1	inconclusive: 29.1 µM [rising, single point]	–
CC(C)CC(=O)Nc1ccc(C(=O)NN2C(=O)c3ccccc3C2=O)cc1	inconclusive: 10.3 µM [rising, partial curve, poor fit]	–
N#Cc1cc(S(=O)(=O)c2ccc(Cl)cc2)c(N)[nH]c1=O	inconclusive: 29.1 µM [rising, single point]	–
Cn1c(SCc2ccc(Br)cc2)nc2ccccc2c1=O	inconclusive: 23.1 µM [cytotoxic, partial curve, poor fit]	–
CC(=O)c1cccc(NC(=O)c2cccc(S(=O)(=O)N3CCOCC3)c2)c1	inactive	–
CCC(CO)Oc1cc(NCc2ccc(C(C)(C)C)cc2)c2ncn(C(C)C)c2c1 (stereo not given)	inconclusive: 29.1 µM [cytotoxic, single point]	–
CC(=O)Nc1ccc2c(c1)nc(CCNC(=O)c1ccco1)n2C	inconclusive: 1.64 µM [rising, full curve]	–
Cc1cc(C)cc(C(=O)N/N=C/c2ccoc2)c1	inconclusive: 29.1 µM [rising, single point]	–
CC1=C(C(=O)OC2CCCCC2)C(c2ccc(F)cc2)NC(=O)N1 (stereo not given)	inactive	–
COc1ccc2[nH]c(=O)c(CN(C(C)=O)c3ccc(C)c(C)c3)cc2c1	inconclusive: 18.4 µM [cytotoxic, single point]	–
Cc1nccn1CCCN1C(=O)OC2(CCCCC2)C1(C)O (stereo not given)	inconclusive: 20.6 µM [rising, single point]	–
CCOC(=O)c1c(C)oc2c1c1c(c3ccccc32)OCN(Cc2cccnc2)C1	inconclusive: 29.1 µM [cytotoxic, single point]	–
COc1ccccc1C(=O)Nc1nnc(SCC(=O)Nc2ccc3c(c2)oc2ccccc23)s1	active: 18.4 µM	–
CCOC(=O)CNC(=O)C1CCCCC1	inconclusive: 1.46 µM [rising, full curve]	–
CCN(CC)S(=O)(=O)c1ccc(N2CCOCC2)c(NC(=O)c2ccc(N3CCCC3=O)cc2)c1	inconclusive: 2.06 µM [cytotoxic, full curve]	–
Cc1ccc(-c2cc3ccccc3nc2N)cc1	inconclusive: 32.6 µM [cytotoxic, single point]	–
Cc1noc(C)c1C(=O)N1CCC(C(=O)c2ccc(F)cc2F)CC1	inactive	–
COc1ccc(NS(=O)(=O)c2cc(C(=O)N3CCCCCC3)ccc2C)cc1	inconclusive: 25.9 µM [cytotoxic, single point]	–
Cc1n[nH]c(=O)nc1NCCc1ccccc1	inactive	–
CC(C)(C)N(NC(=O)OCc1ccccc1)C(=O)c1ccccc1	inconclusive: 0.116 µM [cytotoxic, full curve]	–

Source: PubChem BioAssay AID1347076 (National Center for Advancing Translational Sciences (NCATS), 2019)
